Binding data for 4 molecules are collected here from PMC13340245.

Chains of the proteins cited; added tags and fusions are not shown. Lines headed by an entry give the natural chain unless they say otherwise; changes in a name come on top.
UniProt A0R7G5: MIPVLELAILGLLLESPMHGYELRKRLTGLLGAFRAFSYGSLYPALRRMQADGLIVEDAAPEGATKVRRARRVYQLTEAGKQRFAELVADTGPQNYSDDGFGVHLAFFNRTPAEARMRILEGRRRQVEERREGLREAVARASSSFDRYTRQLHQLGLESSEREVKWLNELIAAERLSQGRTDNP
UniProt A0QWT1: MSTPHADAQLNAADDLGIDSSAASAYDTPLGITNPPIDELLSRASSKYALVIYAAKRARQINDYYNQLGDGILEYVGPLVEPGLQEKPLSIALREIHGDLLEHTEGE

Read-outs that look alike come from different tables or passages of the source. These are yes or no findings as the source states them, for the method shown. In cells and extracts the contact can be indirect. A yes stands for co-enrichment or nearness to the bait. Other partners may have been found. For some of these results: A no says only that the protein was not detected with the bait.

Assay [1] concerns the target NapM fused with a FLAGx3 tag (M. smegmatis) (UniProt A0R7G5). Description: affinity purification with mass spectrometry; pull-down with NapM fused with a FLAGx3 tag, then mass spectrometry; methods in the supplement.
Assay [2] has the same target. The assay is described as above. The source holds these as a separate data set.

With “ω subunit of DNA-directed RNA polymerase (from UniProt A0QWT1 1-107)”, the binding result in assay [1] is reported as “binds”.

B1: DnaA (protein, UniProt A0R7K1 1-504)
chain: MTADPDPPFVAVWNSVVAELNGDVNGDRQGDPSLPVLTPQQRAWLKLVKPLVIAEGFALLSVPTPFVQNEIERHLREPIVTALSRKLGQRVELGVRIATPTDEPEDAPDSFADSPAPASVPAGPADADEIDDDRDARVNAQESWPKYFSRPEPDTSSDDSNAVNLNRRYTFDTFVIGASNRFAHAATLAIAEAPARAYNPLFIWGESGLGKTHLLHAAGNYAQRLFPGMRVKYVSTEEFTNDFINSLRDDRKASFKRSYRDIDILLVDDIQFIEGKEGIQEEFFHTFNTLHNSNKQIVISSDRPPKQLATLEDRLRTRFEWGLITDVQPPELETRIAILRKKAQMDRLDVPDDVLELIASSIERNIRELEGALIRVTAFASLNKTRIDRSLAEVVLRDLIADATTMQISTAAIMAVTAEYFETTVEELRGPGKTRALAQSRQIAMYLCRELTDLSLPKIGQAFGRDHTTVMYAEKKIRGEMAERREVFDHVKELTTRIRQRAKR
Take B1: the binding entry in assay [2] was “no binding”.

B2: CwsA (protein, UniProt A0QNF5 1-136)
chain: MPARADVRLAPRQRLTRGLKYTAVGPVDITRGVLGIGADTAQATAAELRRRYASGKLQRQLAAAAEAVAALPETIQEAVQEVVSPPKKRRRRPLLIAAVAVTVLGGGAAAFSIVRRRSRPQEPPTLAPSVEVAPKP
B2: the binding entry in assay [2] was “binds”.

B3: KhpA (protein, UniProt A0QV38 1-76)
chain: MVDAVEHLVRGIVDNPDDVRVDMVTNRRGRTVEVHVHPDDLGKVIGRGGRTATALRTLVAGIGGRGIRVDVVDTDQ
Regarding B3, the binding result in assay [2] is given as “binds”.
